Experimental data taken from doi:10.1101/2023.10.10.561251.

How the values were obtained:
[1] = biological target: T1, VIPP1-YFP (Arabidopsis thaliana Vesicle-Inducing Protein in Plastids 1 with a C-terminal YFP) (A. thaliana) (UniProt O80796); test: affinity purification with mass spectrometry
T1 sequence: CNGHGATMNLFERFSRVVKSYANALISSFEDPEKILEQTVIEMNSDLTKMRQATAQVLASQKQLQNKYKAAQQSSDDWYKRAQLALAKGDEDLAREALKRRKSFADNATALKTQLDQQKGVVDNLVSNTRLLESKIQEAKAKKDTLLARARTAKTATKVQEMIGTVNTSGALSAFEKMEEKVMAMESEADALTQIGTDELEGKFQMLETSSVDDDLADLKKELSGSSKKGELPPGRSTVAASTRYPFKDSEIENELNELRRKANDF

[2] = biological target: T2, VIPP1-YFP (Arabidopsis thaliana Vesicle-Inducing Protein in Plastids 1 with a C-terminal YFP) (A. thaliana), O80796; test: affinity purification with mass spectrometry; settings: remark: other sources report otherwise
T2 chain: T1 sequence

- binding [1]: binds
Molecule: small subunit of the Acetolactate Synthase protein complex (ALS-2)

- binding [1]: binds
Molecule: chaperone Dna-J domain-containing protein C73

- binding [2]: binds
B1: plastid-encoded NAD(P)H-quinone oxidoreductase subunit I, P56755 1-172 (protein)
chain: MLPMITGFMNYGQQTLRAARYIGQGFMITLSHTNRLPVTIQYPYEKLITSERFRGRIHFEFDKCIACEVCVRVCPIDLPVVDWKLETNIRKKRLLNYSIDFGICIFCGNCVEYCPTNCLSMTEEYEFSTYDRHELNYNQIALGRLPMSVIDDYTIRTIWNSPQTKNGVNPLI

- binding [1]: binds
B2: VIPP1-Associated protein 1 (At5g03900), endogenous (protein, UniProt Q8GW20 64-523)
chain: ASLDKVSGAIKPGGLVESDKLPTDVRKRAMDAVDECGRRVTVGDVASRGGLKVTEAQTALQAIAADTDGFLEVSDEGDVLYVFPRDYRTKLAAKSLRIQIEPFLEKAKGAVDYLARVSFGTALIASIVIVYTSIIALLSSKSEDDNRQRRRGRSYDSGFNFYINPVDLLWYWDPNYYNRRRAREDEGKGMNFIESVFSFVFGDGDPNQGIEEERWQMIGQYITSRGGVVAADELAPYLDVPSSKSAMNDESYILPVLLRFDGQPELDEEGNILYCFPSLQRTASGSSRRKEYVGKWFDWVADMEKFFKEKKWQFSKTSTSERALVIGLGAVNLFGVIVLNTLLNEMSVRPGGFLTFVKNIYPLLQIYAGSFFTIPLIRWFSIKRKNNQIENRNKARLQFARALESPDIALRRKLLSARDMAQKTVIGKDRIVYSTDRDMMEQNYETDEWDRRFKELEKSD

No constants are given. Whether binding was seen depends on the method and setting. In cells and extracts the contact can be indirect. A yes stands for co-enrichment or nearness to the bait. Other partners may have been found. Where a sequence is shown, tags or fusion partners need not be part of it. One block for each molecule: values may come before it.
